Reference: PubChem BioAssay AID2685 (National Center for Advancing Translational Sciences (NCATS), 2010)
Out of some 320,000 compounds screened, about 2,100 (0.66%) were called active. The shares of active, inactive and inconclusive entries below differ from those in the screen. Calls come from the whole dose curve; as a rule, active = well fitted inhibition curve with a large enough effect in the signal ratio, with a control signal flat (not every such curve was filed as active); inconclusive = small, poorly fitted or top-dose-only effect, or effect the other way, or a change in a side signal; inactive = flat fitted curve, though single readings scatter; the % refers to the signal ratio. Potencies of inconclusive entries are doubtful fits and often do not repeat.

Assay: qHTS Assay for Lipid Storage Modulators in Drosophila S3 Cells
Conditions: BODIPY lipid droplet fluorescence, 18-24 h, cells fed with added oleic acid; lipid storage change, negative = inhibition: at 46.1 µM (top of the series) unless noted
Outline: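 Laser-scanning cytometry quantifies lipid droplet accumulation (500–530 nm total intensity; droplet/cell object ratio) in oleic acid-fed (400 uM added) Drosophila S3 cells treated with a concentration series. 20 uM Triacsin C defined 100% inhibition.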
% is set by controls: 0 for no effect and ±100 for the full control effect; potency is the fitted concentration of half-maximal effect.

Q: For `CCn1c(SCC(=O)Nc2nc3ccc(OC)cc3s2)nc2c1c(=O)n(C)c(=O)n2C`, which lipid storage change, negative = inhibition is on record?
A: inconclusive: 14%

Q: With `O=C(O)c1ccccc1-c1ccc(/C=C2\SC(=O)N(c3ccccc3)C2=O)o1` as the compound, how does the lipid storage change, negative = inhibition read?
A: inconclusive: -15.4%

Q: For `COc1ccc(CNC(=O)CCCC(=O)n2nc(C)c3ccccc32)cc1`, which lipid storage change, negative = inhibition is on record?
A: inconclusive: 36.4%

Q: Which Potency does the source give for `CCCN(CCC)Cc1c(C(=O)N/N=C/c2cccs2)nnn1-c1nonc1N` here?
A: inconclusive: 0.58 µM [activator, single point]

Q: For `O=c1[nH][nH]cc1C=Nc1ccc(Oc2ccccc2)cc1`, which lipid storage change, negative = inhibition is on record?
A: inconclusive: -4.77%

Q: Which lipid storage change, negative = inhibition does the source give for `COc1ccccc1C(=O)Nc1ccc2[nH]ncc2c1` here?
A: inactive

Q: Which lipid storage change, negative = inhibition does the source give for `COc1ccc(F)cc1S(=O)(=O)Nc1ccc2c(c1)OCO2` here?
A: inconclusive: 30.2%

Q: For `COc1ccc(-c2cc(C(F)(F)F)nc(SCC(N)=O)n2)cc1`, which Potency is on record?
A: inconclusive: 0.731 µM [rising, full curve, poor fit]

Q: Which lipid storage change, negative = inhibition does the source give for `Cc1ccc(S(=O)(=O)N2CCC(C(=O)OCC(=O)NCc3ccco3)CC2)cc1C` here?
A: inconclusive: 2.75%

Q: Which lipid storage change, negative = inhibition does the source give for `O=C(CCCn1c(=S)[nH]c2cc3c(cc2c1=O)OCO3)NCc1ccco1` here?
A: inconclusive: 19.4%

Q: With `Fc1ccc2nc3n(c2c1F)CCCCCC3` as the compound, how does the lipid storage change, negative = inhibition read?
A: inconclusive: -62%

Q: With `Cc1cccc2c1N(CCCOc1ccccc1)C(=O)C2=O` as the compound, how does the lipid storage change, negative = inhibition read?
A: inactive

Q: For `CN(C)S(=O)(=O)Nc1ccc(Br)cc1F`, which Potency is on record?
A: active: 23.1 µM

Q: With `Cc1nn(Cc2ccc(Cl)cc2)c(C)c1NC(=O)c1c(-c2ccccc2)noc1C` as the compound, how does the Potency read?
A: inconclusive: 18.4 µM [falling, single point]

Q: With `CCCCCn1c(=NC(C)=O)c(C#N)cc2c(=O)n3ccccc3nc21` as the compound, how does the Potency read?
A: inconclusive: 1.3 µM [activator, full curve]

Q: For `O=C(COC(=O)C1CCCC1)NCc1ccc(Cl)cc1`, which lipid storage change, negative = inhibition is on record?
A: inconclusive: 18%

Q: For `COc1cccc(C(=O)N(Cc2ccco2)Cc2cc3cccc(C)c3[nH]c2=O)c1`, which Potency is on record?
A: inconclusive: 1.84 µM [activator, single point]

Q: With `CN(C)Cc1c(C(=O)N/N=C/C2CC=CCC2)nnn1-c1nonc1N` (stereo not drawn) as the compound, how does the lipid storage change, negative = inhibition read?
A: inconclusive: 25%

Q: For `COc1cccc(NC(=O)c2ccccc2SC)c1`, which lipid storage change, negative = inhibition is on record?
A: inconclusive: 39.4%

Q: With `CCOc1ccc(NC(=O)CN(C)C(=O)c2cc(C3CC3)nn2-c2ccccc2)cc1OCC` as the compound, how does the lipid storage change, negative = inhibition read?
A: inconclusive: 25.9%

Q: For `NC(=NCCc1c[nH]c2ccccc12)NS(=O)(=O)c1cc(F)ccc1F`, which lipid storage change, negative = inhibition is on record?
A: inconclusive: -73.8%

Q: With `COc1ccccc1NS(=O)(=O)c1cccc(C(=O)N/N=C/c2c(C)nn(-c3ccccc3)c2N2CCCC2)c1` as the compound, how does the Potency read?
A: inconclusive: 6.51 µM [activator, single point]

Q: With `Cc1ccc(Nc2n[nH]c(C)c2[N+](=O)[O-])c(C)c1` as the compound, how does the lipid storage change, negative = inhibition read?
A: inconclusive: 26.2%

Q: With `O=C(NCC1CCCN(Cc2ccc3nonc3c2)C1)c1cccc(C(F)(F)F)c1` (stereo not drawn) as the compound, how does the lipid storage change, negative = inhibition read?
A: inconclusive: 9.26%

Q: Which Potency does the source give for `CCCc1c(C(=O)Nc2ccc(F)cc2)cnn1-c1ccccc1` here?
A: inconclusive: 20.6 µM [falling, partial curve, poor fit]

Q: For `CCOc1ccc(-c2c(C(=O)N/N=C(\C)c3cccnc3)nnn2-c2nonc2N)cc1`, which lipid storage change, negative = inhibition is on record?
A: inconclusive: 26.2%

Q: With `Cn1c(=O)c2c(SCC(=O)N3CCOCC3)nc(-c3ccccc3Cl)nc2n(C)c1=O` as the compound, how does the lipid storage change, negative = inhibition read?
A: inactive

Q: Which lipid storage change, negative = inhibition does the source give for `CC(=O)c1cccc(NC(=O)C(C)OC(=O)CCCN=C2NS(=O)(=O)c3ccccc32)c1` (stereo not drawn) here?
A: inconclusive

Q: For `CC(=O)Nc1ccc(NC(=O)C(C)Oc2ccc(Cl)cc2Cl)cc1` (stereo not drawn), which lipid storage change, negative = inhibition is on record?
A: inconclusive: 54.1% [at 0.00295 µM]

Q: With `O=C(CCNC(=O)c1ccc(Br)cc1)NC1CCCCCC1` as the compound, how does the lipid storage change, negative = inhibition read?
A: inconclusive: -7.29%

Q: With `Cc1ccc(OCC(=O)NN=C2C3CC4CC(C3)CC2C4)cc1` as the compound, how does the lipid storage change, negative = inhibition read?
A: inconclusive: -0.347%

Q: With `CCOc1ccc(NC(=S)N=Nc2c(O)[nH]c3ccccc23)cc1` as the compound, how does the lipid storage change, negative = inhibition read?
A: inconclusive: 59.4%

Q: With `O=C(COC(=O)C1(c2ccc(Cl)cc2)CCCC1)N1CCc2ccccc21` as the compound, how does the lipid storage change, negative = inhibition read?
A: inconclusive: -41.3%

Q: Which lipid storage change, negative = inhibition does the source give for `CCCc1ccc(C(=O)Cn2nc(C(=O)O)c3ccccc3c2=O)cc1` here?
A: inconclusive: 37.4%

Q: With `c1ccc(-n2c(-c3ccco3)nnc2N2CCOCC2)cc1` as the compound, how does the Potency read?
A: inconclusive: 6.51 µM [falling, single point]

Q: For `O=C(C1CC1)N1CCc2cc(Br)cc(S(=O)(=O)NCc3ccccn3)c21`, which lipid storage change, negative = inhibition is on record?
A: inconclusive: 52%

Q: For `Cc1onc(-c2ccccc2Cl)c1C(=O)Nc1ccc(Br)cc1`, which Potency is on record?
A: inconclusive: 1.84 µM [falling, partial curve, poor fit]

Q: For `CC(=O)Nc1ccc(NC(=O)CSc2nnc(NC(=O)C3CC3)s2)cc1`, which Potency is on record?
A: inconclusive: 0.103 µM [activator, full curve, poor fit]

Q: Which lipid storage change, negative = inhibition does the source give for `N#CC1(NC(=O)Cn2cc(C(F)(F)F)ccc2=O)CCCC1` here?
A: inconclusive: 1.12%

Q: For `COc1cc(C2NC(=O)C(C#N)=C(S)N2c2ccccc2)ccc1OC(C)C` (stereo not drawn), which Potency is on record?
A: inconclusive: 20.6 µM [falling, single point]

Q: With `O=C(CN(Cc1ccc(F)cc1)C(=O)CNS(=O)(=O)c1ccc(F)cc1)NCc1ccco1` as the compound, how does the Potency read?
A: inconclusive: 18.4 µM [activator, single point]

Q: Which lipid storage change, negative = inhibition does the source give for `Cc1ccc(NC(=O)c2oc3ccccc3c2NC(=O)C2CCCO2)cc1C` (stereo not drawn) here?
A: inconclusive: 14.8%

Q: For `Cc1nnnn1/C(=C\c1ccccc1)C(=O)OCC(=O)NC(C)(C)C`, which Potency is on record?
A: active: 4.11 µM

Q: Which Potency does the source give for `O=C(Cn1nc(C(F)(F)F)c2c1CCCC2)NCCN1CCOCC1` here?
A: inconclusive: 6.51 µM [cytotoxic, single point]

Q: For `CCN(CC(=O)NCc1ccc(Cl)cc1)C(=O)/C=C/c1ccccc1`, which Potency is on record?
A: inconclusive: 18.4 µM [activator, single point]

Q: With `Cc1ccc(NC(=O)CSc2nnc(Cc3csc(C)n3)o2)c(C)c1` as the compound, how does the lipid storage change, negative = inhibition read?
A: inconclusive

Q: For `Cc1nnc2sc(SCc3ccccc3)nn2c1=O`, which lipid storage change, negative = inhibition is on record?
A: inconclusive: -4.42%

Q: For `Cc1ccc(/C=N/NC(=O)Cc2ccc(Cl)cc2)s1`, which Potency is on record?
A: inconclusive: 0.58 µM [falling, single point]

Q: Which Potency does the source give for `O=C(CCNC(=O)Cn1ccc2ccccc2c1=O)NCCc1ccccc1Cl` here?
A: inconclusive: 9.2 µM [falling, partial curve, poor fit]

Q: Which lipid storage change, negative = inhibition does the source give for `Cc1ccc(NC(=O)NC2(C(=O)NCc3ccccc3)CCCCC2)cc1` here?
A: inconclusive: 19.5%

Q: Which lipid storage change, negative = inhibition does the source give for `COC(=O)c1ccc(OCC2c3cc(OC)c(OC)cc3CCN2C(=O)C2CC2)cc1` (stereo not drawn) here?
A: inconclusive: 384%

Q: With `O=C(c1cn(-c2ccccc2)nc1-c1ccc(F)cc1)N1CCCCC1` as the compound, how does the lipid storage change, negative = inhibition read?
A: inconclusive: -54.6%

Q: Which lipid storage change, negative = inhibition does the source give for `Cc1ccc(C)c(-c2nnc(NC(=O)c3ccc([N+](=O)[O-])o3)o2)c1` here?
A: inconclusive: -12.1%

Q: Which Potency does the source give for `Cc1cc(C)c2[nH]c(=O)c(C(c3nnnn3Cc3ccc4c(c3)OCO4)N3CCCCC3)cc2c1` (stereo not drawn) here?
A: inconclusive: 3.26 µM [activator, partial curve]

Q: Which lipid storage change, negative = inhibition does the source give for `O=C(CSc1nnc(Cn2nnc3ccccc32)o1)Nc1cccc(Cl)c1` here?
A: inconclusive: -19.1%

Q: For `CCOC(=O)C1=NNC(C(=O)c2ccc(C)cc2)C1c1ccc(OC)cc1` (stereo not drawn), which Potency is on record?
A: inconclusive: 4.11 µM [activator, partial curve]

Q: Which lipid storage change, negative = inhibition does the source give for `O=S(=O)(c1cccc2nonc12)N1CCN(c2cccc(Cl)c2)CC1` here?
A: inconclusive: 14.4%

Q: Which lipid storage change, negative = inhibition does the source give for `Cc1ccc(C(=O)c2oc3nc(C)cc(C)c3c2N)cc1` here?
A: inactive

Q: For `COc1ccc(NS(=O)(=O)c2ccc3c(c2)N(C(C)=O)CC(C)S3)c(OC)c1` (stereo not drawn), which lipid storage change, negative = inhibition is on record?
A: inactive

Q: With `COc1ccccc1NS(=O)(=O)c1ccc(C(=O)N2CCCC(C)C2)cc1` (stereo not drawn) as the compound, how does the lipid storage change, negative = inhibition read?
A: inconclusive: -2.89%

Q: Which lipid storage change, negative = inhibition does the source give for `COc1ccccc1NC(=O)N1CCOCC1` here?
A: inconclusive: -22.8%

Q: With `Cc1nc2c3cc(F)ccc3n(Cc3ccccc3)c2s1` as the compound, how does the Potency read?
A: inconclusive: 1.16 µM [falling, full curve, poor fit]

Q: With `CC1CCC(NC(=O)CN2C(=O)NC3(CCCCC3C)C2=O)CC1` (stereo not drawn) as the compound, how does the lipid storage change, negative = inhibition read?
A: inconclusive: 11.5%

Q: Which lipid storage change, negative = inhibition does the source give for `O=C(Cc1ccccc1Cl)N1CCN(c2ccccn2)CC1` here?
A: inconclusive: 19.5%

Q: With `Cc1ccccc1C(=O)OCC(=O)N(C)c1c(N)n(Cc2ccccc2)c(=O)[nH]c1=O` as the compound, how does the lipid storage change, negative = inhibition read?
A: inconclusive: -21.8%

Q: Which lipid storage change, negative = inhibition does the source give for `COc1ccc(N2CCN(CCNC(=O)c3ccc4nc5ccccc5c(=O)n4c3)CC2)cc1` here?
A: inconclusive: 103%

Q: For `COc1ccc(OCC(=O)NCCCCCCNC(=O)COc2ccc(OC)cc2)cc1`, which Potency is on record?
A: inconclusive: 29.1 µM [activator, partial curve]

Q: Which lipid storage change, negative = inhibition does the source give for `COc1cccc(CNC(=O)C2CCCN(S(C)(=O)=O)C2)c1` (stereo not drawn) here?
A: inconclusive: -8.8%

Q: For `Cc1cc2c3c(c1C)C(=O)C(=O)N3C(C)(C)CC2C` (stereo not drawn), which Potency is on record?
A: inconclusive: 0.0073 µM [falling, full curve]

Q: For `Cc1ccc(S(=O)(=O)NCCCCCC(=O)Nc2ccccc2C)cc1`, which lipid storage change, negative = inhibition is on record?
A: inconclusive: 0.541%

Q: Which Potency does the source give for `COc1cc(OC)cc(-c2nc3nc(C)c(CCC(=O)O)c(C)n3n2)c1` here?
A: inconclusive: 29.1 µM [activator, single point]

Q: For `COc1cc(/C=C/C(=O)N2CC(C)OC(C)C2)cc(OC)c1OC` (stereo not drawn), which Potency is on record?
A: inconclusive: 2.91 µM [activator, single point]

Q: With `O=c1c2ccccc2nc(SCCN2CCCCC2)n1CCc1ccccc1` as the compound, how does the lipid storage change, negative = inhibition read?
A: inconclusive: -2.57%

Q: Which lipid storage change, negative = inhibition does the source give for `CCc1ccc(C2=CC(c3cc(Br)ccc3F)n3ncnc3N2)cc1` (stereo not drawn) here?
A: inconclusive: -19.5%

Q: For `Cc1nnc(C)n1/N=C/c1ccc(O)cc1`, which lipid storage change, negative = inhibition is on record?
A: inconclusive: -19.1%

Q: Which Potency does the source give for `CCc1ccccc1NC(=O)COC(=O)C1C2CC3OC(=O)C1C3C2` (stereo not drawn) here?
A: inconclusive: 0.206 µM [falling, single point]

Q: With `COc1cccc(C(=O)NCCSCc2ccccc2Cl)c1` as the compound, how does the lipid storage change, negative = inhibition read?
A: inconclusive: -31.2%

Q: With `CC(C)(C)OC(=O)CNC(=O)c1[nH]cnc1C(=O)NC(c1ccccc1)c1ccccc1` as the compound, how does the lipid storage change, negative = inhibition read?
A: inconclusive: 7.07%
